The list shows a part of the results.
Columns and labels:
Assay in all cases: log2 fold change, soluble protein after heating vs DMSO (PISA); higher = thermal stabilisation; K562 lysate, 10 uM; active = over 0.2 and 3.5 SD of the protein, either way, in both replicates (recomputed)
[1] = compound: CN1CC[C@H](c2c(O)cc(O)c3c(=O)cc(-c4ccccc4Cl)oc23)[C@H](O)C1 [alvocidib]
In short: (§1)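 Quantification was by TMTpro 16plex LC-MS/MS with equalised channel sums, applied to the supernatant after 21,000xg for 90 min. Samples were crude K562 extract at 1 mg/mL protein in PBS pH 7.4 with 1 mM MgCl2, treated with 10 μM compound for 30 min, heated for 3 min across 48°C-58°C, pooled and brought to 0.5% NP-40 at 4°C. Values are log-two fold changes in thermal stability relative to solvent controls, from duplicates.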

The chains behind the UniProt entries cited, without tags or fusion partners. Where a name states a change or a piece, a line headed by the entry shows the natural chain unless it says otherwise.
UniProt Q9H257: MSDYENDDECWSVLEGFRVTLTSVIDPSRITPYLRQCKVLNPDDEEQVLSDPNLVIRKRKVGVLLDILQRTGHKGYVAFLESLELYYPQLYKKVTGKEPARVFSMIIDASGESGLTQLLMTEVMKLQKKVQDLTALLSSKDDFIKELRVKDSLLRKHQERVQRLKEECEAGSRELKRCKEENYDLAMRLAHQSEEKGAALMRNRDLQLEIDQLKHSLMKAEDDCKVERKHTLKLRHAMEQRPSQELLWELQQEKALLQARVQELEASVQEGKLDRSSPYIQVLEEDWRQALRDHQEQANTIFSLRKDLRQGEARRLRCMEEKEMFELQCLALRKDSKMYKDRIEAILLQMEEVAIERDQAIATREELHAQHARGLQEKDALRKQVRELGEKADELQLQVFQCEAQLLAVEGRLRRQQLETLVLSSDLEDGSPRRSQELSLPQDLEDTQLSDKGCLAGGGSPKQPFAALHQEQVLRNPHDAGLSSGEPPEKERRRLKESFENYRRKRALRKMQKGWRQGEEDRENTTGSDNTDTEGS
UniProt P51946: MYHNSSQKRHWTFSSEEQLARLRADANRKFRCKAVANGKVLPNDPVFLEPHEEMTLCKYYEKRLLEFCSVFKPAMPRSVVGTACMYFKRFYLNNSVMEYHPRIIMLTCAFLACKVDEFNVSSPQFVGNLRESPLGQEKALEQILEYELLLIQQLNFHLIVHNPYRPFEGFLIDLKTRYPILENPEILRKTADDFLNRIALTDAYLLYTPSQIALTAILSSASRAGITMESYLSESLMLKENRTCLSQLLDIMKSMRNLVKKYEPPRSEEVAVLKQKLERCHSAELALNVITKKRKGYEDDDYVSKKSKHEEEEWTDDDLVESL
UniProt P48643, whole entry, looked up: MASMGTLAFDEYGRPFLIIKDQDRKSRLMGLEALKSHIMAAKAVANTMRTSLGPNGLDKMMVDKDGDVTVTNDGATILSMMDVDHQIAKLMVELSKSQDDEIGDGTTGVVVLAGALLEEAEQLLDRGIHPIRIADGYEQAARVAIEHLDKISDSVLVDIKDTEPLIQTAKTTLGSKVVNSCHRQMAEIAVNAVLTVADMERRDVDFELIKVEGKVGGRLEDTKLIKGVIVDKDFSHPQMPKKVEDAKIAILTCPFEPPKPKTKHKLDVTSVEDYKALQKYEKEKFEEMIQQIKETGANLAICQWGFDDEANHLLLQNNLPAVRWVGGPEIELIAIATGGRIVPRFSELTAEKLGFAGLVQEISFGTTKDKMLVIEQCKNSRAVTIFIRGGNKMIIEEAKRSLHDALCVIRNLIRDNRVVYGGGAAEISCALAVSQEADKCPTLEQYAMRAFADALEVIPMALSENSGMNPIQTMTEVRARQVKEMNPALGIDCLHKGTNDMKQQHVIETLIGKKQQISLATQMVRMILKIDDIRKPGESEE
UniProt P33681, whole entry, looked up: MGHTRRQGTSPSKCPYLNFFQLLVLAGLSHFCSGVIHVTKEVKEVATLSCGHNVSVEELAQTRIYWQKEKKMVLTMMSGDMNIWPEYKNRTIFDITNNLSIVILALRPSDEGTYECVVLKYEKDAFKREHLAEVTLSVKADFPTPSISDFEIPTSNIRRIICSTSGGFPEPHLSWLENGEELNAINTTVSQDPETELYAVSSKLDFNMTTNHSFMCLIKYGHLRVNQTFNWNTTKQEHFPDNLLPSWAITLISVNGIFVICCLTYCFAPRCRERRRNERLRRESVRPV
UniProt P48509: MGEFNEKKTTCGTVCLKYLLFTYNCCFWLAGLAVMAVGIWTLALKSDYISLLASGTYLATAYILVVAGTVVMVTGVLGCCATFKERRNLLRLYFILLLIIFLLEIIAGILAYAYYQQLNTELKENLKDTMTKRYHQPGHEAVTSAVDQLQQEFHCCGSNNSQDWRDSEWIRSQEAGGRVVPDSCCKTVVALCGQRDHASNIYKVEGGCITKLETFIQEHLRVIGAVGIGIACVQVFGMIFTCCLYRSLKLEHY
UniProt Q9H6E4: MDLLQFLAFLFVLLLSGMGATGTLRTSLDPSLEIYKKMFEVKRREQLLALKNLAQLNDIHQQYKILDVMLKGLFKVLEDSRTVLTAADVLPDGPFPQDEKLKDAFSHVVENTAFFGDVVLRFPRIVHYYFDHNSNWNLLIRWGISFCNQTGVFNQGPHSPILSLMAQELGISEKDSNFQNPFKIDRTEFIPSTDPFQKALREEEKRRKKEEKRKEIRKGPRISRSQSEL
UniProt O60826, whole entry, looked up: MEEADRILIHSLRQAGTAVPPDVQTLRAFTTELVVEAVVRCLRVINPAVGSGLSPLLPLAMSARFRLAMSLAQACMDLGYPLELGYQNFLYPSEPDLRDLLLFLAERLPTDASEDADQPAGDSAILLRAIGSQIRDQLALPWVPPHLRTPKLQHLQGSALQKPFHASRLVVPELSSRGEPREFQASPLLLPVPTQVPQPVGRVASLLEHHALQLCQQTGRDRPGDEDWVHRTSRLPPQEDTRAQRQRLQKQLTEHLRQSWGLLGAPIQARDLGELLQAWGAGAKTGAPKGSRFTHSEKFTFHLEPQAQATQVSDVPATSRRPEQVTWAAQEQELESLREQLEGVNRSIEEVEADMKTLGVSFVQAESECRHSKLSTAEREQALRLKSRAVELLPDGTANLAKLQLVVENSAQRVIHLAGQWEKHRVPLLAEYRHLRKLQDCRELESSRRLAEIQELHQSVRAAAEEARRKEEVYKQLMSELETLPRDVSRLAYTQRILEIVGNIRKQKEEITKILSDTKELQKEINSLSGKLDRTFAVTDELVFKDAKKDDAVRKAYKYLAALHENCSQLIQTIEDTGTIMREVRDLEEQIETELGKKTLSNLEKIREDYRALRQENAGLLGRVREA
UniProt Q86WR0: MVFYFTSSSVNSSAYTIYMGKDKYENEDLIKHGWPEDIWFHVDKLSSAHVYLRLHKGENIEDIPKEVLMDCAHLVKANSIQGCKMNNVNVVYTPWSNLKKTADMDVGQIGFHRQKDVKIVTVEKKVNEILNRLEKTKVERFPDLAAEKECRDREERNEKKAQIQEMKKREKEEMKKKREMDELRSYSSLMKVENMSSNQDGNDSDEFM
UniProt Q08722, whole entry, looked up: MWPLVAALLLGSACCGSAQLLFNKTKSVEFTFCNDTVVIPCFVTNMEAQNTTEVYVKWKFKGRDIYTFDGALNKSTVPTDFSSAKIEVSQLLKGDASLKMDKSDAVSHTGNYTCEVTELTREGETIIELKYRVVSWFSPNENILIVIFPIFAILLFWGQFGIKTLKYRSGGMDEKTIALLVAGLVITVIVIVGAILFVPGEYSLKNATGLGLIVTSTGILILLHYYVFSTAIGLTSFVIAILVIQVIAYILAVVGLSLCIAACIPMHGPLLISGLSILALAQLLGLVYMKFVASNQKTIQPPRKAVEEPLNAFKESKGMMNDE
UniProt O15446, whole entry, looked up: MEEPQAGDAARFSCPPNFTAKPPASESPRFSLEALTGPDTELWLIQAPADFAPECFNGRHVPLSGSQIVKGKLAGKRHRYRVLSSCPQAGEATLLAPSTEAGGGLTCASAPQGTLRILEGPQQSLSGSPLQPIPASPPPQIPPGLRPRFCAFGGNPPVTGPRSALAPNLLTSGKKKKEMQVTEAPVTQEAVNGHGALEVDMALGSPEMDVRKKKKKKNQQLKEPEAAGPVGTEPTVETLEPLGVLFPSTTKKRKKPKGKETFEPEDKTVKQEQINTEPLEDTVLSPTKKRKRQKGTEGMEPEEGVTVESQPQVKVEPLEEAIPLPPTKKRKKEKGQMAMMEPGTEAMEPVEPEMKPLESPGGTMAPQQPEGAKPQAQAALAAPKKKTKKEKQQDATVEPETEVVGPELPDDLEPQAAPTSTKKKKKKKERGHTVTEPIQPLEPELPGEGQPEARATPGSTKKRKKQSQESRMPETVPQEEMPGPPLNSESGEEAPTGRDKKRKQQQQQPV
UniProt Q5RIA9: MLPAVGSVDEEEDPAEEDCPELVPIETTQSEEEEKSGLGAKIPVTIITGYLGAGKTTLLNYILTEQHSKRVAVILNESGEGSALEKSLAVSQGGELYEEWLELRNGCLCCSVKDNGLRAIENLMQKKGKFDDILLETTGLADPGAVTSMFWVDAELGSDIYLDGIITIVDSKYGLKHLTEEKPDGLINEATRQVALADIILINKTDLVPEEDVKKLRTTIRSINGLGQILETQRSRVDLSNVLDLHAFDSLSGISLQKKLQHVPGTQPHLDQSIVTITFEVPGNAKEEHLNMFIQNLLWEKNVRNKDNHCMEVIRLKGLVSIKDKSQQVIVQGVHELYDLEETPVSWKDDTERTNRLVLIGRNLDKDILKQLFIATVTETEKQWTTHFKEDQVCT
UniProt P55212: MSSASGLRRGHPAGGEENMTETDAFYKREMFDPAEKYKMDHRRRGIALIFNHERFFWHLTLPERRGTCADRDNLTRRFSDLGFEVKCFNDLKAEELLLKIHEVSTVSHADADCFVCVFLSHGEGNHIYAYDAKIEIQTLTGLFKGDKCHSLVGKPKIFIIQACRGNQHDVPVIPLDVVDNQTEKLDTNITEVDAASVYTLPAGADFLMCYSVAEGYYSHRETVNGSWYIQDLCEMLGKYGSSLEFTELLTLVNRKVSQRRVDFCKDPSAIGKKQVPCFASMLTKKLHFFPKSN
UniProt Q9NPF0: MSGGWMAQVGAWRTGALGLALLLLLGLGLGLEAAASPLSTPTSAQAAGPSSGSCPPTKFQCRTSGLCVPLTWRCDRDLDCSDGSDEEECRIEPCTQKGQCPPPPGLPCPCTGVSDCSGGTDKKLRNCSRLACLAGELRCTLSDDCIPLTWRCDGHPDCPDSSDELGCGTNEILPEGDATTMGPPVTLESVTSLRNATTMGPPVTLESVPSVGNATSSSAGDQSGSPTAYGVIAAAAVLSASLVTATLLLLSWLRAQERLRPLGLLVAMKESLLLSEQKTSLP
UniProt Q8IVM0: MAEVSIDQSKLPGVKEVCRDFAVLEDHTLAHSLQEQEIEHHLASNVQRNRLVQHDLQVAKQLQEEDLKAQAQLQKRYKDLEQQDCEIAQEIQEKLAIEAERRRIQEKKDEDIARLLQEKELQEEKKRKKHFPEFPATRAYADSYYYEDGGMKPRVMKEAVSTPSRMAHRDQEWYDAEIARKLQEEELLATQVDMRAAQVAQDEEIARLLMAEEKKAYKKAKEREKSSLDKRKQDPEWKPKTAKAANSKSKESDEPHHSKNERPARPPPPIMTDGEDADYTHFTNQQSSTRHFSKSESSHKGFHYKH
UniProt O14618: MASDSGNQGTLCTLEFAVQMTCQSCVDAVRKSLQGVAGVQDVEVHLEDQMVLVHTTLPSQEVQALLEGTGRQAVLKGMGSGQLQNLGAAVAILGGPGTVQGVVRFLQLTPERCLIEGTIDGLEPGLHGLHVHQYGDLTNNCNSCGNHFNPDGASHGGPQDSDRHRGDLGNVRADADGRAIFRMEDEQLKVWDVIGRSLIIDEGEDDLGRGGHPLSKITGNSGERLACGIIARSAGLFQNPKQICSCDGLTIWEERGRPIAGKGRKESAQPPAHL
UniProt Q8N7R7: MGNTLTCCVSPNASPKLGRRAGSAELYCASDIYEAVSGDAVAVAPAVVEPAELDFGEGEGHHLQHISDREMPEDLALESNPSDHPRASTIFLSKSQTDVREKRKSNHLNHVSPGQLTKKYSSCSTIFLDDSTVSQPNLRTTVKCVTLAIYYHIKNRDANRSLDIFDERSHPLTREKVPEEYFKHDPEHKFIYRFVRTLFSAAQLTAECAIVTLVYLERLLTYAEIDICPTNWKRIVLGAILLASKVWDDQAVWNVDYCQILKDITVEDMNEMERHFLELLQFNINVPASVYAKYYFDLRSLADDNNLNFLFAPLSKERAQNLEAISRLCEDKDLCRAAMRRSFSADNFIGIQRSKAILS
UniProt Q6NZI2: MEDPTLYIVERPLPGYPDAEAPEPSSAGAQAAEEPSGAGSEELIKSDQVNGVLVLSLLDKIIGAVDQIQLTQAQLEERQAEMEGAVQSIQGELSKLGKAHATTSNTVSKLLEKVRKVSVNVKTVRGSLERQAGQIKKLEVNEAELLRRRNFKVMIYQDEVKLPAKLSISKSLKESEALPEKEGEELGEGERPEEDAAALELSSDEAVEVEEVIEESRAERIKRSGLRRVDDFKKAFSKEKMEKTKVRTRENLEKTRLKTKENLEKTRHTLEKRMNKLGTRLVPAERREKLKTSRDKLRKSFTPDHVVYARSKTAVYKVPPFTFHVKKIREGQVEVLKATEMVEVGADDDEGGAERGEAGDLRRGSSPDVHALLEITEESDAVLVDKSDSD
UniProt P20248, whole entry, looked up: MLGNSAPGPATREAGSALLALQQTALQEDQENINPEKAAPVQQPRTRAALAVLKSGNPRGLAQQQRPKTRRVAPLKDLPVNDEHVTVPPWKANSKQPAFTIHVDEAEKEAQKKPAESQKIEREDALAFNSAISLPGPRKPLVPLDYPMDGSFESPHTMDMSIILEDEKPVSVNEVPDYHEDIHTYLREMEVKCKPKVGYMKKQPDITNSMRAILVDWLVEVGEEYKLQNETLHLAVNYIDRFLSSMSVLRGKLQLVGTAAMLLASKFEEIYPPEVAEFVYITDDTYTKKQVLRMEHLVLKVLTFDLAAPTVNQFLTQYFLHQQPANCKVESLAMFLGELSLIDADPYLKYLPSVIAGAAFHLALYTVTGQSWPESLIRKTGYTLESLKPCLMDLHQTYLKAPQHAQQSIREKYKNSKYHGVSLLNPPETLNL

[2] = compound: CN1CCc2c(c3ccccc3n2Cc2ccc(C(=O)NO)cc2)C1 [Tubastatin A]
In short: as §1

[3] = compound: CNC(=O)C1=CC=CC=C1NC2=NC(=NC=C2Cl)NC3=C(C=C(C=C3)N4CCOCC4)OC
In short: as §1

[4] = compound: CNC(=O)c1ccc(Nc2ncc(C(F)(F)F)c(NCc3nccnc3N(C)S(C)(=O)=O)n2)cc1 [defactinib]
In short: as §1

[5] = compound: CNc1nc(-c2ccc3c(N)n[nH]c3c2)cc(N2C[C@@H](C(=O)NC3CCCCC3)CC[C@H]2C)n1
In short: as §1

[6] = compound: COC(=O)N[C@@H](C)CNc1nccc(-c2cn(C(C)C)nc2-c2cc(Cl)cc(NS(C)(=O)=O)c2F)n1 [encorafenib]
In short: as §1

[7] = compound: COC(=O)[C@H](CCSC)NC(=O)C1=C(C=C(C=C1)NC[C@H](CS)N)C2=CC=CC=C2
In short: as §1

[8] = compound: COc1cc(Nc2ncc3c(n2)-c2ccc(Cl)cc2C(c2c(F)cccc2OC)=NC3)ccc1C(=O)O [alisertib]
In short: as §1

[9] = compound: COc1cc2nc(-c3cc(F)ccc3O)nc(N[C@@H]3CNC[C@H]3C(C)(C)O)c2cc1OC
In short: as §1

[10] = compound: COc1cc2ncnc(Nc3ccc(F)c(Cl)c3)c2cc1OCCCN1CCOCC1 [gefitinib]
In short: as §1

Measured: log2 fold change

CARD9 (UniProt Q9H257)
inactive: [1] -0.011 | [2] -0.099 | [3] 0.043 | [4] 0.05 | [5] 0.038 | [6] -0.06 | [7] 0.068 | [8] -0.004 | [9] 0.009 | [10] -0.021

CASC4 (UniProt Q6P4E1)
inactive: [1] -0.03 | [2] 0.054 | [3] 0.011 | [4] -0.064 | [5] -0.044 | [6] 0.128 | [7] -0.012 | [8] 0.035 | [9] -0.004 | [10] 0.086

CCNH (UniProt P51946)
inactive: [1] 0.006 | [2] 0.016 | [3] -0.015 | [4] 0.026 | [5] -0.018 | [6] 0.033 | [7] -0.047 | [8] -0.005 | [9] -0.007 | [10] 0.024

CCT5 (UniProt P48643)
inactive: [1] 0.003 | [2] 0.012 | [3] -0.012 | [4] -0.015 | [5] -0.012 | [6] -0.008 | [7] -0.03 | [8] -0.006 | [9] -0.002 | [10] 0

CCZ1 (UniProt P86791)
inactive: [1] -0.01 | [2] -0.043 | [3] 0.008 | [4] 0.041 | [5] -0.059 | [6] 0.016 | [7] -0.107 | [8] -0.024 | [9] -0.016 | [10] 0.011

CD80 (UniProt P33681)
inactive: [1] 0.071 | [2] 0 | [3] 0.014 | [4] -0.085 | [5] 0.11 | [6] 0.016 | [7] -0.082 | [8] -0.345 | [9] -0.011 | [10] -0.001

CD151 (UniProt P48509)
inactive: [1] -0.206 | [2] -0.029 | [3] -0.011 | [4] -0.005 | [5] 0.028 | [6] -0.05 | [7] -0.031 | [8] -0.018 | [9] -0.001 | [10] 0.299

CARHSP1 (UniProt Q9Y2V2)
inactive: [1] 0.031 | [2] 0.065 | [3] 0.009 | [4] -0.033 | [5] 0.078 | [6] -0.013 | [7] -0.055 | [8] -0.014 | [9] 0.01 | [10] -0.029

CCDC134 (UniProt Q9H6E4)
inactive: [1] -0.001 | [2] 0.03 | [3] -0.001 | [4] 0.019 | [5] -0.023 | [6] 0.033 | [7] -0.056 | [8] 0.016 | [9] -0.001 | [10] 0.022

CCDC22 (UniProt O60826)
inactive: [1] 0.024 | [2] -0.063 | [3] 0.012 | [4] -0.03 | [5] 0.009 | [6] 0.031 | [7] -0.029 | [8] 0.002 | [9] -0.009 | [10] 0.027

CCDC25 (UniProt Q86WR0)
inactive: [1] 0.132 | [2] 0 | [3] -0.012 | [4] -0.025 | [5] 0.075 | [6] 0.008 | [7] 0.083 | [8] -0.027 | [9] -0.005 | [10] 0.01

CD47 (UniProt Q08722)
inactive: [1] -0.076 | [2] 0.074 | [3] 0.014 | [4] -0.105 | [5] 0.022 | [6] 0.008 | [7] -0.094 | [8] -0.009 | [9] 0.033 | [10] 0.019

CD3EAP isoform 2 (UniProt O15446)
inactive: [1] -0.033 | [2] 0.009 | [3] 0.009 | [4] 0.026 | [5] 0.062 | [6] 0.033 | [7] -0.184 | [8] -0.006 | [9] 0.012 | [10] -0.032

CBWD5 (UniProt Q5RIA9)
inactive: [1] -0.02 | [2] 0.027 | [3] 0.023 | [4] 0.018 | [5] 0.077 | [6] 0.007 | [7] 0.027 | [8] 0.001 | [9] 0.099 | [10] 0.028

CASP6 (UniProt P55212)
inactive: [1] -0.011 | [2] -0.003 | [3] 0.067 | [4] 0.039 | [5] -0.046 | [6] -0.015 | [7] -0.026 | [8] 0.023 | [9] -0.029 | [10] 0.061

CD320 (UniProt Q9NPF0)
inactive: [1] -0.038 | [2] -0.096 | [3] 0.063 | [4] 0.025 | [5] -0.081 | [6] 0.013 | [7] 0.016 | [8] -0.021 | [9] -0.071 | [10] 0.012

CCDC50 isoform 2 (UniProt Q8IVM0)
inactive: [1] 0.007 | [2] 0.03 | [3] -0.062 | [4] 0.001 | [5] -0.146 | [6] 0.053 | [7] -0.013 | [8] -0.018 | [9] -0.009 | [10] 0.048

CCS (UniProt O14618)
inactive: [1] -0.01 | [2] 0.032 | [3] -0.023 | [4] -0.008 | [5] -0.041 | [6] -0.001 | [7] 0 | [8] 0.006 | [9] 0.007 | [10] 0.007

CBLB (UniProt Q13191)
inactive: [1] -0.018 | [2] 0.017 | [3] 0.002 | [4] -0.135 | [5] 0.045 | [6] 0.033 | [7] -0.068 | [8] -0.086 | [9] 0.054 | [10] -0.029

CCDC115 (UniProt Q96NT0)
inactive: [1] -0.009 | [2] 0.045 | [3] 0.034 | [4] 0.005 | [5] 0.047 | [6] 0.054 | [7] -0.177 | [8] -0.001 | [9] -0.037 | [10] -0.006

CD59 isoform 2 (UniProt P13987)
inactive: [1] -0.037 | [2] 0.033 | [3] 0.062 | [4] -0.047 | [5] 0.032 | [6] -0.098 | [7] -0.127 | [8] -0.02 | [9] 0.062 | [10] 0.173

CCNYL1 (UniProt Q8N7R7)
inactive: [1] -0.074 | [2] -0.076 | [3] 0.061 | [4] 0.024 | [5] 0.055 | [6] 0.011 | [7] 0.032 | [8] -0.012 | [9] 0.032 | [10] 0.101

CBX4 (UniProt O00257)
inactive: [1] -0.075 | [2] 0.144 | [3] -0.014 | [4] 0.175 | [5] 0.162 | [6] 0.081 | [7] -0.041 | [8] -0.059 | [9] 0.11 | [10] -0.031

CD2AP (UniProt Q9Y5K6)
inactive: [1] 0.003 | [2] 0.061 | [3] 0.011 | [4] -0.01 | [5] 0.013 | [6] -0.004 | [7] -0.061 | [8] -0.015 | [9] -0.007 | [10] 0.023

CAVIN1 (UniProt Q6NZI2)
inactive: [1] 0.029 | [2] 0.039 | [3] 0.03 | [4] -0.034 | [5] 0.034 | [6] 0.015 | [7] 0.045 | [8] -0.003 | [9] 0.023 | [10] 0.006

Taken from above (2 entries):
CCNYL1 (UniProt Q8N7R7)
inactive: [1] -0.074 | [2] -0.076 | [3] 0.061 | [4] 0.024 | [5] 0.055 | [6] 0.011 | [7] 0.032 | [8] -0.012 | [9] 0.032 | [10] 0.101

CBX4 (UniProt O00257)
inactive: [1] -0.075 | [2] 0.144 | [3] -0.014 | [4] 0.175 | [5] 0.162 | [6] 0.081 | [7] -0.041 | [8] -0.059 | [9] 0.11 | [10] -0.031

(further entries)

CCNA2 (UniProt P20248)
inactive: [1] 0.044 | [2] 0.011 | [3] -0.002 | [4] 0.037 | [5] -0.017 | [6] 0.005 | [7] -0.012 | [8] -0.029 | [9] 0.176 | [10] 0.019

— the supplement of paper PMC10849652
